Reference: paper PMC11509758, “New Fusarochromanone Derivatives from the Marine Fungus Fusarium equiseti UBOCC-A-117302” (Marine Drugs, 2024)

Test system: hTERT RPE-1 cells
Settings: read-out: EC50 (µM) RPE-1; 48 h incubation, doses up to 50 µM, MTS

## CN[C@@H]1C[C@H]2O[C@@](C)([C@@H]1OC)n1c3ccccc3c3c4c(c5c6ccccc6n2c5c31)C(=O)NC4 [Staurosporine, reference compound]
  EC50: 1.9 µM
